# PubChem BioAssay AID504467 (National Center for Advancing Translational Sciences (NCATS), 2011)
# The whole screen tested about 330,000 compounds, of which about 7,700 (2.3%) were called active. Inconclusive results, whose numbers are uncertain, are shown with a selection of clear calls. Calls follow the shape of the dose curve; as a rule, active = well fitted inhibition curve with a large enough effect; inconclusive = small, poorly fitted or top-dose-only effect, or effect the other way; inactive = flat fitted curve, though single readings scatter. Potencies beside an inconclusive call are fits to weak or partial responses and may not hold up.
# Assay: qHTS screen for small molecules that inhibit ELG1-dependent DNA repair in human embryonic kidney (HEK293T) cells expressing luciferase-tagged ELG1; also: nearly all actives have a fitted effect of over 55% in size
# Details: HEK293T ELG1-luciferase reporter, luminescence, 16 h, DNA damage induced by 5-fluorouridine; activity change, negative = inhibition: at 46.1 µM (top of the series)
# Summary of the method: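 Luminescence from the luciferase reporter, measured 30 min after ONE-Glo reagent at room temperature, was the read-out. Beforehand, 2,000 cells per well were exposed for 16 hr at 37 °C to 5-fluorouridine together with compound or vehicle.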
# % is scaled to controls: 0 for no effect and ±100 for the full control effect; potency is read from the fitted curve at half-maximal effect.
SMILES,"activity change, negative = inhibition",Potency
Cc1cc(N)n(-c2nc3ccccc3s2)n1,inactive: 4.07%,
Cc1cccc(S(=O)(=O)NC(Cc2c[nH]c3ccccc23)C(=O)O)c1 (stereo unspecified),inactive: -0.331%,
COc1ccc(S(=O)(=O)Oc2ccccc2C(N)=O)cc1,,"inconclusive: 14.6 µM [activator, partial curve, poor fit]"
COc1cccc(-c2ccc(SCC(=O)N3CCN(c4ccccc4)CC3)nn2)c1,,"inconclusive: 29.1 µM [inhibitor, single point]"
O=C(NCc1ccc(F)cc1)C1CCC(CNS(=O)(=O)c2cccs2)CC1 (stereo unspecified),,"inconclusive: 5.17 µM [inhibitor, partial curve, poor fit]"
COCCn1c(N/N=C(C)/C=C/c2ccccc2)nc2c1c(=O)[nH]c(=O)n2C,,active: 4.61 µM
CCC(C)NC(=S)N1CCN(Cc2ccc3c(c2)OCO3)CC1 (stereo unspecified),inactive: -4.6%,
O=C(CCS(=O)(=O)c1ccccc1)Nc1nc2c(s1)COc1ccccc1-2,,"inconclusive: 18.4 µM [inhibitor, partial curve]"
CCC(C)C1C(C#N)=C(N)Oc2n[nH]c(C)c21 (stereo unspecified),,"inconclusive: 29.1 µM [inhibitor, single point]"
CCOC(=O)C1CCN(C2=NC(=O)/C(=C/c3ccc(OC)c(OC)c3)S2)CC1,inactive: -4.64%,
COc1ccccc1NS(=O)(=O)c1cccc(NC(=O)c2nn(C)c(=O)c3ccccc23)c1,,"inconclusive: 29.1 µM [inhibitor, single point]"
CCCCC(C)n1[nH]c(=O)c2c(C)cc(C)nc21 (stereo unspecified),,"inconclusive: 23.1 µM [activator, single point]"
Cc1ccc(-n2nc(C)c(=O)c(-c3ccccc3)c2NC(=O)c2cccs2)cc1,inactive: 5.61%,
CN1CCN(S(=O)(=O)c2ccc(Oc3ccc(F)cc3Br)nc2)CC1,,"inconclusive: 23.1 µM [inhibitor, single point]"
CC(C)C(O)(C#CCN1CCCCC1)C(C)C,inactive: -1.72%,
CCSc1ccc(-c2nn(-c3ccccc3)cc2/C=C(/C#N)C(=O)NCCCOC)cc1,inactive: 10.4%,
COc1cc2nc(CN3CCC(C(O)(c4ccccc4)c4ccccc4)CC3)[nH]c(=O)c2cc1OC,,"inconclusive: 29.1 µM [inhibitor, single point]"
Cc1nc2ccccc2n1CC(=O)N/N=C\c1ccccn1,inactive: 10.5%,
CCOC(=O)C1CCN(C(=O)c2cc(COc3ccc(OC)c4ccccc34)on2)CC1,,"inconclusive: 11.6 µM [activator, partial curve]"
CCCCn1c(=O)[nH]c(=O)c2c1nc(-c1ccc(C)c([N+](=O)[O-])c1)n2CC,,"inconclusive: 29.1 µM [inhibitor, single point]"
COC(=O)C(CC(C)C)N(Cc1cc(OC)cc(OC)c1)S(=O)(=O)c1ccccc1Br (stereo unspecified),,"inconclusive: 18.3 µM [inhibitor, single point]"
CCOC(=O)c1c(NC(=O)CN2CCOCC2)sc2c1CC(C)(C)OC2,,active: 8.2 µM
CN1CCN(C(=S)NC(=O)c2ccc(Br)cc2)CC1,,"inconclusive: 29.1 µM [activator, single point]"

# By substructure: the entries above with fluorine
SMILES,"activity change, negative = inhibition",Potency
O=C(NCc1ccc(F)cc1)C1CCC(CNS(=O)(=O)c2cccs2)CC1 (stereo unspecified),,"inconclusive: 5.17 µM [inhibitor, partial curve, poor fit]"
CN1CCN(S(=O)(=O)c2ccc(Oc3ccc(F)cc3Br)nc2)CC1,,"inconclusive: 23.1 µM [inhibitor, single point]"

# Next part

SMILES,"activity change, negative = inhibition",Potency
Cn1nccc1C(=O)Nc1ccc(Cl)cc1,,"inconclusive: 5.8 µM [activator, partial curve, poor fit]"
CC(OCC(O)CN(C)CCOc1ccccc1)c1ccc(Cl)cc1 (stereo unspecified),,"inconclusive: 35.5 µM [inhibitor, single point]"
Cc1ccc(CSc2nnc(NC(=O)C3=COCCO3)s2)cc1,,"inconclusive: 14.1 µM [activator, partial curve]"
Cc1c(OCC(=O)N(C)c2ccccc2)ccc2c3c(c(=O)oc12)CCC3,,"inconclusive: 20.6 µM [activator, single point]"
O=C(CCC(=O)c1cccs1)Nc1ccc(N2CCCCC2)cc1,inactive: 7.11%,
COc1ccc(OCC(=O)N2CCN(c3nnc(-c4ccccc4)c4ccccc34)CC2)cc1,,active: 16.4 µM
Cc1ccc(/C=N/n2cnc3sc(C)c(C)c3c2=O)o1,,"inconclusive: 23.1 µM [activator, single point]"
Cc1ccc(C(=O)Nc2ncc(Cc3ccc(SC(F)F)cc3)s2)cc1,,"inconclusive: 6.51 µM [activator, single point]"
Cc1cc(C)nc(-n2nc(C)cc2NC(=O)CN2CCc3ccccc3C2)n1,,active: 3.66 µM
COc1ccc(NC(=O)CSc2nc(N)c(-c3ccccc3)c(=O)[nH]2)cc1,,"inconclusive: 18.4 µM [activator, single point]"
Cc1oc(C(C)(C)C)cc1C(=O)Nc1ccc2c(c1)OCO2,inactive: -0.859%,
O=c1cc(N2CCOCC2)cnn1-c1ccccc1,,"inconclusive: 20.6 µM [activator, partial curve]"
Cc1nnc(SCc2cccc(Oc3ccccc3)c2)n1N,,"inconclusive: 18.4 µM [activator, partial curve, poor fit]"
Cc1ccc(C(=O)CCC(=O)OCC(=O)NNC(=O)c2ccccc2Cl)cc1,inactive: 7.34%,
Cc1ccc2nc(/C(C#N)=C/c3ccc(O)c(O)c3)[nH]c2c1,,"inconclusive: 6.51 µM [activator, single point]"
N[C@@H](Cc1ccccc1)C(=O)N1CCC(C(=O)N[C@@H](Cc2c[nH]c3ccccc23)C(=O)O)CC1,inactive: -3.58%,
O=C(CSc1nnc(-c2ccccc2F)o1)NC1CC1,,"inconclusive: 16.4 µM [activator, partial curve]"
CCOc1cccc(CN2CCN(c3cccc(C(F)(F)F)c3)CC2)c1O,,"inconclusive: 23.1 µM [inhibitor, partial curve, poor fit]"
COc1ccc(N2CCN(C(=O)c3sc4ncn(CC(=O)N5CCCCC5C)c(=O)c4c3C)CC2)cc1 (stereo unspecified),,"inconclusive: 10.3 µM [inhibitor, partial curve]"
COC(=O)[C@]1(C)CCC[C@@]2(C)C3CC[C@@]4(C)C[C@]3(CCC21)CC(=O)N4Cc1ccc(OC)cc1 (stereo partly specified),inactive: 7.35%,
Cc1ccc(S(=O)(=O)N(C)CC(=O)Nc2ccccc2)cc1,inactive: -11.7%,
Cc1ccccc1-n1c(SCC(=O)NC2CCS(=O)(=O)C2)nc2ccccc2c1=O (stereo unspecified),inactive: 24.6%,
Cc1ccc(/C=N/NC(=O)c2ccccn2)o1,,"inconclusive: 29.1 µM [inhibitor, single point]"
